PubChem BioAssay AID1259405 | NCATS, 2018
Shown is a random part of about 50,000 reagents tested. Of all reagents, about 4,000 (8%) are marked active. 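Mouse siRNA library applied to hamster cells; one well for each siRNA.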 Reagents against one gene are numbered here.

Screen: 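Knock-downs that lift recombinant protein yield in hamster ovary cells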 (primary screen)
System: Chinese hamster CHO-K1 ovary cells with stable secreted eGFP expression
Reagent: single siRNA against mouse genes, 0.8 pmol siRNA per well (2 µl of 400 nM stock)
Duration: 3 days
Measurement: 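Percent of the per-plate non-targeting control median for intracellular GFP per well by laser scanning cytometry and for cell viability by ATP luminescence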
Scale: GFP, % of control: higher = more GFP per well, higher productivity; viability (ATP), % of control: higher = more viable cells (more ATP)
Hit rule: 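Called active when intracellular GFP, relative to negative control, is at or above 120%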

Gene	reagent no.	GFP, % of control	viability (ATP), % of control	Call
Glrb	1	97.1	71.9	inactive
Glrb	2	43.1	64.1	inactive
Glrb	3	38.7	39.4	inactive
Tnfaip8l2	1	85.5	96.7	inactive
Tnfaip8l2	2	78.4	83.1	inactive
Tnfaip8l2	3	46	64.3	inactive
Ferry3	1	75.9	86.3	inactive
Ferry3	2	85.2	72.4	inactive
Ferry3	3	90.4	93.5	inactive
Pcdhb16	1	96.7	104	inactive
Pcdhb16	2	126	95.5	active
Armcx6	1	83.1	67	inactive
Armcx6	2	73.9	89.7	inactive
Armcx6	3	99.7	66.6	inactive
Cryl1	1	155	96.6	active
Cryl1	2	62.5	85.9	inactive
Cryl1	3	55.9	43.8	inactive

Continued (4 carried over from the part before).
Gene	reagent no.	GFP, % of control	viability (ATP), % of control	Call
Armcx6	3	99.7	66.6	inactive
Cryl1	1	155	96.6	active
Cryl1	2	62.5	85.9	inactive
Cryl1	3	55.9	43.8	inactive
Dnah2	1	75.2	66.6	inactive
Dnah2	2	70.2	82	inactive
Dnah2	3	85.3	83	inactive
Fam81a	1	57.9	77.8	inactive
Fam81a	2	105	113	inactive
Fam81a	3	99.9	131	inactive
Apc	1	92.4	74.1	inactive
Apc	2	52.7	102	inactive
Qtrt1	1	188	115	active
Qtrt1	2	84.2	163	inactive
Qtrt1	3	83.9	87.3	inactive
Rps13	1	60.5	32.1	inactive
Rps13	2	43.6	34	inactive
Rps13	3	72.4	76.1	inactive
Crygn	1	112	89.2	inactive
Crygn	2	43.1	62.9	inactive
Crygn	3	119	108	inactive
